The results in this text go back to US20120135451A1, “Method and Apparatus for Evaluation of Toxicity” (BIOPHOS SA, priority 2009, published 2012).

For this experiment, the system named is boar spermatozoa. Kind of experiment: Toxicity evaluation by motility of boar spermatozoa (Qualisperm). The format is cell-based. Particulars: 0.5 h, % motile spermatozoa (all moving spermatozoa), 30 minutes incubation, around 60 million/ml boar spermatozoa, read-out: IC50 % motille. How it is done:
Quadruple samples of each test compound were prepared in varying concentrations by serial dilution in a 96 microwell-plate by serial dilution into XCell with DMSO. Equal volumes (50 μl) of boar spermatozoa in a concentration of around 60 million/ml were added to all sample solutions. Subsequently, the microwell plate was shaken and incubated for 30 minutes. The dosing was performed by using an automated TECAN® robot. After the incubation the sample solutions were pipetted on a Leja® slide and the motility of the spermatozoa was analysed using a Qualisperm® apparatus from Biophos AG. A dose response curve was obtained where % motile spermatozoa (all the moving spermatozoa), % progressive spermatozoa (share of spermatozoa above a pre-determined threshold, here: above 25 μm/sec), or mean speed of total motile spermatozoa was plotted as a function of the logarithmic concentration of the test compound expressed in mM. From the dose curve IC50 values were calculated.

In general, IC50 refers to the concentration needed to halve the response being measured.

For `CCCCc1oc2ccccc2c1C(=O)c1cc(I)c(OCCN(CC)CC)c(I)c1` [Amiodarone], the IC50 was determined as 11 µM.
